# Test results published in PubChem BioAssay AID504465 (National Center for Advancing Translational Sciences (NCATS), 2011).
# Screen size: about 2,100 compounds; about 210 (10%) were called active. Inconclusive means that the source gave no clear call. Such entries were picked first, then a sample of the others. The call rests on the fitted dose curve; in most records, active means well fitted inhibition curve with a large enough effect; inconclusive means small, poorly fitted or top-dose-only effect, or effect the other way; inactive means no such curve, though single readings can be large or run the other way. Potencies beside an inconclusive call are fits to weak or partial responses and may not hold up.
# Experiment: IN Cell qHTS Assay for Inhibitors of the mTORC1 Signaling Pathway in MEF (Tsc2-/-, p53-/-) Cells: Sytravon; further: nearly all actives have a fitted effect of over 60% in size
# Details: phospho-rpS6 immunofluorescence, 24 h; series mostly up to 38.3 µM
# Outline: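 Tsc2-/-, p53-/- MEFs (empty-vector) treated with compound 24 h at 37 degree Celsius, then fixed and stained for phospho-rpS6 Ser235/236 (Alexa-488) plus Hoechst. Reported as % positive cells, thresholds set against 7.5 nM rapamycin and DMSO wells.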
# Potency means the concentration at half of the fitted maximal effect.
row,SMILES,Potency
1,COc1ccc(OC)c(Nc2c3c(nc4ccccc24)CCC3)c1,"inconclusive: 29.3 µM [falling, partial curve, poor fit]"
2,Cc1ccc(C)c(NC(=O)Cn2c(=O)n(Cc3ccc4c(c3)OCO4)c(=O)c3ccccc32)c1,"inconclusive: 16.5 µM [falling, single point]"
3,CCS(=O)(=O)c1ncc(Cl)c(C(=O)N(Cc2ccccc2)c2ccc(OC)cc2)n1,active: 3.29 µM
4,CC(C)(C)c1ccc(C2NC(=O)c3n[nH]c(-c4cccs4)c32)cc1 (stereo not drawn),inactive
5,Cc1ccccc1OCc1ccc(-c2nc(C#N)c(N3CCN(C)CC3)o2)o1,inactive
6,COc1ccc(C(=O)Nc2ccc(OCc3cc(=O)n4ccccc4n3)cc2)cc1,"inconclusive: 23.3 µM [falling, single point]"
7,N#C/C(=C\c1ccc(-c2ccc(F)cc2F)o1)c1nc2ccccc2[nH]1,"inconclusive: 23.3 µM [falling, single point]"
8,CC(C)Oc1ccc(CNC(=O)CCn2c(=O)c3cccn3c3ccc(F)cc32)cc1,inactive
9,O=C(CCS(=O)(=O)c1cc2c(cc1Cl)NC(=O)CO2)NCCc1ccc(Cl)cc1,"inconclusive: 0.131 µM [falling, full curve, poor fit]"
10,O=C(Nc1cccc(C(F)(F)F)c1)c1cnn(-c2cccc(F)c2)c1C1CCNCC1,"inconclusive: 14.7 µM [falling, single point]"
11,CCc1cccc(C)c1NC(=O)Cn1nc(C)n2cccc2c1=O,"inconclusive: 1.85 µM [falling, partial curve, poor fit]"
12,CCOCCCNC(=O)c1ccc(-n2c(-c3ccccc3)cc3c2CCC(C)C3)cc1 (stereo not drawn),"inconclusive: 13.1 µM [falling, single point]"
13,CCOc1ccc(NC(=O)Cn2c(=O)n(CCCCCC(=O)NCc3ccccc3)c(=O)c3sccc32)cc1,inactive
14,Cc1csc2nc(COc3cccc(NC(=O)c4ccccc4F)c3)cc(=O)n12,"inconclusive: 6.56 µM [falling, partial curve, poor fit]"
15,CCOc1ccc(NC(=O)c2c(NC(=O)Cc3ccccc3)sc3c2CCCCC3)cc1,"inconclusive: 20.7 µM [falling, partial curve, poor fit]"
16,Cc1ccc(NC(=O)CSc2cn(CC(=O)N3CCCC3)c3ccccc23)cc1Cl,"inconclusive: 26.1 µM [falling, single point]"
17,COc1cc(S(=O)(=O)NCCc2c(C)[nH]c3ccccc23)c(C)cc1C,inactive
18,CN(C)CCNc1oc(-c2ccc(COc3ccc(Cl)cc3)o2)nc1C#N,"inconclusive: 1.04 µM [falling, full curve, poor fit]"
19,Cc1ccc(C)c(CN2C(=O)C(O)(c3c(C)[nH]c4ccccc34)c3ccccc32)c1 (stereo not drawn),"inconclusive: 0.369 µM [falling, partial curve, poor fit]"
20,CCCCNC(=O)CSc1nc2n[nH]c(C)c2c(=N)n1-c1cccc(Cl)c1C,inactive
21,COc1ccc(S(=O)(=O)Nc2ccc3oc4c(c3c2)CCCC4)cc1,inactive
22,CC1=C(C(=O)OCC2CCCCC2)C(c2ccc(Cl)cc2)CC(=O)N1 (stereo not drawn),inactive

# In the list so far, these contain four or more nitrogen atoms.
row,SMILES,Potency
5,Cc1ccccc1OCc1ccc(-c2nc(C#N)c(N3CCN(C)CC3)o2)o1,inactive
10,O=C(Nc1cccc(C(F)(F)F)c1)c1cnn(-c2cccc(F)c2)c1C1CCNCC1,"inconclusive: 14.7 µM [falling, single point]"
11,CCc1cccc(C)c1NC(=O)Cn1nc(C)n2cccc2c1=O,"inconclusive: 1.85 µM [falling, partial curve, poor fit]"
13,CCOc1ccc(NC(=O)Cn2c(=O)n(CCCCCC(=O)NCc3ccccc3)c(=O)c3sccc32)cc1,inactive
18,CN(C)CCNc1oc(-c2ccc(COc3ccc(Cl)cc3)o2)nc1C#N,"inconclusive: 1.04 µM [falling, full curve, poor fit]"
20,CCCCNC(=O)CSc1nc2n[nH]c(C)c2c(=N)n1-c1cccc(Cl)c1C,inactive

# Next structures follow.

row,SMILES,Potency
1,CCOc1ccc(NC(=O)CSc2oc(-c3ccc(F)cc3)nc2S(=O)(=O)c2ccc(C)cc2)cc1,active: 2.33 µM
2,O=C(Nc1ccc(Br)cc1F)c1cc(S(=O)(=O)NC2CCCCC2)ccc1F,"inconclusive: 0.185 µM [activator, full curve]"
3,CCOC(=O)c1ccc(NC(=O)CSc2nc3cc4ccccc4cc3[nH]2)cc1,"inconclusive: 26.1 µM [falling, single point]"
4,Cc1cccc2c1N(Cc1ccccc1OCCC(C)C)C(=O)C2=O,"inconclusive: 23.3 µM [falling, single point]"
5,CCOC(=O)N1CCc2c(sc3c2C(=O)NC(c2cc(OC)c(OC)c(OC)c2)N3)C1 (stereo not drawn),inactive
6,COc1ccccc1NC(=O)c1c(NCc2ccc(C)o2)sc2c1CCCCC2,inactive
7,COc1ccc(CCNC(=O)CCCn2c(=O)c3ccccc3n(CC(=O)Nc3cc(Cl)ccc3C)c2=O)cc1OC,"inconclusive: 0.736 µM [falling, full curve, poor fit]"
8,Cc1n[nH]c(C)c1S(=O)(=O)N(CC(=O)Nc1ccc(C(F)(F)F)cc1)c1ccc(C(C)C)cc1,inactive
9,CC1CCCCN1S(=O)(=O)c1ccc(C(=O)Nc2sc3c(c2C(N)=O)CC(C)(C)NC3(C)C)cc1 (stereo not drawn),inactive
10,CCCCN1C(=O)C(O)(c2c[nH]c3ccccc23)c2cc(Br)ccc21 (stereo not drawn),inactive
11,Cc1ccc(NC(=O)Cn2c(=O)n(Cc3ccco3)c(=O)c3sc4ccccc4c32)cc1C,"inconclusive: 5.85 µM [falling, partial curve, poor fit]"
12,COc1cc(Cl)c(C)cc1NC(=O)C1CCN(c2nc3ccccc3n3cccc23)CC1,"inconclusive: 16.5 µM [falling, single point]"
13,COc1ccc(OC)c(NS(=O)(=O)c2ccc3c(c2)C(C)(C)C(=O)N3C)c1,inactive
14,COc1ccc(Cn2c(C(=O)O)c(CNCc3ccccc3F)c3ccc(OC)cc32)cc1,inactive
15,CC1CCCN(C(=O)CSc2c3c(nc4cc(Cl)ccc24)CCCC3)C1 (stereo not drawn),"inconclusive: 0.147 µM [falling, full curve, poor fit]"
16,COc1ccc(-c2ccc3c(N)c(C(=O)Nc4ccc(C(F)(F)F)cc4)sc3n2)cc1OC,active: 0.233 µM
17,CC(=O)c1ccc(N2CCN(C(=O)C3CCCN(S(=O)(=O)c4ccc(Br)s4)C3)CC2)cc1 (stereo not drawn),inactive
18,Cc1cc(C)c(NC(=O)c2sc3nc(C)cc(C)c3c2NC(=O)c2ccccc2)c(C)c1,inactive
19,CCc1ccc(S(=O)(=O)Nc2cc3c(C(=O)OCc4ccccc4)c(C)oc3c3ccccc23)cc1,"inconclusive: 26.1 µM [activator, partial curve, poor fit]"
20,CCc1cccc(NC(=O)Cn2c(=O)n(CCC(=O)NCc3ccccc3Cl)c(=O)c3sccc32)c1,inactive
21,Cc1cccc(OC(C)C(=O)Nc2nonc2-c2ccc(Br)cc2)c1C (stereo not drawn),"inconclusive: 18.5 µM [falling, single point]"
